In experiment [1] the target is Thrombospondin-2 (THBS2) (human (endogenous in CRC cell lines)) (UniProt P35442). Put plainly: co-IP; endogenous proteins in CRC cells, detected by Western blot (Fig. 4D); details in the Supplemental Materials and Methods. For orientation: In western blotting, separated proteins are transferred to a membrane and probed.
For experiment [2], the target named is labeled THBS2 coexpressed in HEK293 cells (UniProt P35442). Put plainly: co-IP; labeled proteins coexpressed in HEK293 cells, detected by Western blot (Fig. 4E).

The chains behind the UniProt entries cited, without tags or fusion partners. Residues count along the entry.
UniProt P35442, residues 19-1172: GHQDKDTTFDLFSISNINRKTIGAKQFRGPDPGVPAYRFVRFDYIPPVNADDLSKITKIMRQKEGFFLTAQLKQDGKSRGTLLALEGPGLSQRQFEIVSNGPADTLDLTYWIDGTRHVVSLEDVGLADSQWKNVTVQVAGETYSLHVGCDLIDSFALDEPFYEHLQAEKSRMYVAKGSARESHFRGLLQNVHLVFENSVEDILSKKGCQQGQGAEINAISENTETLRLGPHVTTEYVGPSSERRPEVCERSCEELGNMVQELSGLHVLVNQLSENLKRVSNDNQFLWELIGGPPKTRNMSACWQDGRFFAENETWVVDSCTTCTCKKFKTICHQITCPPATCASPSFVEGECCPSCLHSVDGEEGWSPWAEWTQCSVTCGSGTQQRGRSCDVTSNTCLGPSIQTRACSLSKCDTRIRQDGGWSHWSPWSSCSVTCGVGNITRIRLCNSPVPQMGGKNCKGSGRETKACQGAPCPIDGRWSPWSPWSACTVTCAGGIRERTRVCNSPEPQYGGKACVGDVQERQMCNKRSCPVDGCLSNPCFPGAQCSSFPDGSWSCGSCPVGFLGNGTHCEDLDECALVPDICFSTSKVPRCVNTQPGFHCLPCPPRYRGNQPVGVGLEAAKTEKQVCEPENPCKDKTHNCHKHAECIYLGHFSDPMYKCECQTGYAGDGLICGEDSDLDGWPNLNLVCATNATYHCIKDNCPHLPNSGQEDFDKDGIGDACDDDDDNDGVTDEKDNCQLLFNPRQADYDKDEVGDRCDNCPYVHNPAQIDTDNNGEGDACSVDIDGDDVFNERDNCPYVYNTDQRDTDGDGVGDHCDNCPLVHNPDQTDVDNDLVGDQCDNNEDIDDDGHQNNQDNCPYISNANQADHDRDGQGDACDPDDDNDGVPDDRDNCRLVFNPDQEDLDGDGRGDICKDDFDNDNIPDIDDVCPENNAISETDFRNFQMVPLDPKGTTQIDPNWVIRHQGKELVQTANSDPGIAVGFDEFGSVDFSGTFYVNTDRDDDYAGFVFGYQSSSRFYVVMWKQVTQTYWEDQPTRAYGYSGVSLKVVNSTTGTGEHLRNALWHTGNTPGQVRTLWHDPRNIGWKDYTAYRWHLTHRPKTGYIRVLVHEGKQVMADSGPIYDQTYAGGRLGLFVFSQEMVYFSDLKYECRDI
UniProt P35222: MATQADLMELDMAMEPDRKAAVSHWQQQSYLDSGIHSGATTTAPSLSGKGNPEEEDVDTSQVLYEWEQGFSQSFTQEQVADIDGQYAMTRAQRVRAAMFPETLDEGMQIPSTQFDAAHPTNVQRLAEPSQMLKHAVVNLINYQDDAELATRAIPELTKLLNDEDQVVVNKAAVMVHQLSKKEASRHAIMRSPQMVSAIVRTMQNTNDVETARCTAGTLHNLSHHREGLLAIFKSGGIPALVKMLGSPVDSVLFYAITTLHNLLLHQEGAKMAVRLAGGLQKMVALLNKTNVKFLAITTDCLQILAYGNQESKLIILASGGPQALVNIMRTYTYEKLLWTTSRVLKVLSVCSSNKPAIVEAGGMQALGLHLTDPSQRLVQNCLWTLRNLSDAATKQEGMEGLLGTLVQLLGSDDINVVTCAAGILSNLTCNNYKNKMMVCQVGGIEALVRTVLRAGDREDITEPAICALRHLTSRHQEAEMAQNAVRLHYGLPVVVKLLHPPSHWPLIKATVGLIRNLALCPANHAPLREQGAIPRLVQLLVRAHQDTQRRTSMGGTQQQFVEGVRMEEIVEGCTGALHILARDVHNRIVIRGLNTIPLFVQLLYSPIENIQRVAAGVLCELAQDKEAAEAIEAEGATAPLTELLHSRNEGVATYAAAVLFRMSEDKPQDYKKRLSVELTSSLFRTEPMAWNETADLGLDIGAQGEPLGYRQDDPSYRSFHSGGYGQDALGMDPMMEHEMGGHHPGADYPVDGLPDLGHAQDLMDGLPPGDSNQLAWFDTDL
UniProt P63104: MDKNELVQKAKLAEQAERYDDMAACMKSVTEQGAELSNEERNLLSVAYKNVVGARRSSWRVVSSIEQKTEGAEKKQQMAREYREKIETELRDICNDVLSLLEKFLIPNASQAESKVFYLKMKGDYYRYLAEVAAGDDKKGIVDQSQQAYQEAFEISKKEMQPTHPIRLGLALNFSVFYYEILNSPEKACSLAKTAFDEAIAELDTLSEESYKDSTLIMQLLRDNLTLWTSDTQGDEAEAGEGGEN

These are yes or no findings as the source states them, for the method shown. In cells and extracts the contact can be indirect. Some results given as binding are weak or reduced against the parent protein; the word gives no strength.

Take β-catenin (from UniProt P35222 1-781): the binding result in experiment [1] is “binds”. On the same count and under the same terms, for YWHAZ (from UniProt P63104 1-245) the value was “binds”. As to “labeled β-catenin coexpressed in HEK293 cells (from UniProt P35222 1-781)”, the binding result in experiment [2] is “binds”. The same measure, in the same setting: under “labeled YWHAZ coexpressed in HEK293 cells (from UniProt P63104 1-245)” stands “binds”.

The values above are taken from paper PMC11253389.
